According to article PMC5865411:
Results are given in words; binding and its absence hold for the method and conditions named. Binding seen in cells or lysates may run through a third protein. Some results given as binding are weak or reduced against the parent protein; the word gives no strength.

Sequences of proteins named here, by UniProt entry; tags and fusion partners are left off.
UniProt Q8IUC6: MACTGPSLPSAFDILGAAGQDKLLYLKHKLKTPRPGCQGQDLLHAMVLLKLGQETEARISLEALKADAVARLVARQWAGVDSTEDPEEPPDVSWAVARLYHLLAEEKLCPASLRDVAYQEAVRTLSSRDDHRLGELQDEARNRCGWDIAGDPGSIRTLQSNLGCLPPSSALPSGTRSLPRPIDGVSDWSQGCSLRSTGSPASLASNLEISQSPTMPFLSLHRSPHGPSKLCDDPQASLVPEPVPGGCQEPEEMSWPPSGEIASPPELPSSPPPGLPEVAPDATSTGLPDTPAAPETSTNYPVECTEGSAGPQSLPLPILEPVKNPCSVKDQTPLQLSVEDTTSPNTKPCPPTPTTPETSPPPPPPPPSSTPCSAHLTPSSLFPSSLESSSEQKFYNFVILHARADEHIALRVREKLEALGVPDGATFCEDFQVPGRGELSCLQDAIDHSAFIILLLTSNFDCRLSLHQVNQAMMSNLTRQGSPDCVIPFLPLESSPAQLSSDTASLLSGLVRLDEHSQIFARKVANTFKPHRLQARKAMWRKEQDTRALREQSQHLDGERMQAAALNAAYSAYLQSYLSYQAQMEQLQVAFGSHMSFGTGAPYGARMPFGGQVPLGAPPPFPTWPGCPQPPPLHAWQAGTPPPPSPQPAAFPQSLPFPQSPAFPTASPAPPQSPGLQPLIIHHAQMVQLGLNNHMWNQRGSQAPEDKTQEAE
UniProt Q99836: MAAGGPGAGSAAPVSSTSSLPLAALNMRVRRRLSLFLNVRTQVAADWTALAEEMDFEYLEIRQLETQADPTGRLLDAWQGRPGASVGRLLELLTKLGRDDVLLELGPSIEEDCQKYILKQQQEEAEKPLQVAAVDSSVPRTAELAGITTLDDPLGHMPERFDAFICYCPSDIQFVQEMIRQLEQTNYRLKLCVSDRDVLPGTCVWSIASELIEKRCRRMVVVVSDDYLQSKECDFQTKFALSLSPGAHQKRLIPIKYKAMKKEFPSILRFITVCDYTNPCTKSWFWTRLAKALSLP

Tests used:
[1] = biological target: T1, Toll-like receptor-10 (human (endogenous in THP-1)) (UniProt Q9BXR5); assay: co-IP; THP-1 cells transfected with 10 µg/ml poly(I:C), different time points; lysis in 50 mM Tris, 150 mM NaCl, 0.5% IGEPAL CA-630, pH 7.5; anti-TLR10 antibody (sc-30198) and Protein G agarose at 4°C; Western blotting with anti-MyD88 or anti-TRIF
T1 sequence: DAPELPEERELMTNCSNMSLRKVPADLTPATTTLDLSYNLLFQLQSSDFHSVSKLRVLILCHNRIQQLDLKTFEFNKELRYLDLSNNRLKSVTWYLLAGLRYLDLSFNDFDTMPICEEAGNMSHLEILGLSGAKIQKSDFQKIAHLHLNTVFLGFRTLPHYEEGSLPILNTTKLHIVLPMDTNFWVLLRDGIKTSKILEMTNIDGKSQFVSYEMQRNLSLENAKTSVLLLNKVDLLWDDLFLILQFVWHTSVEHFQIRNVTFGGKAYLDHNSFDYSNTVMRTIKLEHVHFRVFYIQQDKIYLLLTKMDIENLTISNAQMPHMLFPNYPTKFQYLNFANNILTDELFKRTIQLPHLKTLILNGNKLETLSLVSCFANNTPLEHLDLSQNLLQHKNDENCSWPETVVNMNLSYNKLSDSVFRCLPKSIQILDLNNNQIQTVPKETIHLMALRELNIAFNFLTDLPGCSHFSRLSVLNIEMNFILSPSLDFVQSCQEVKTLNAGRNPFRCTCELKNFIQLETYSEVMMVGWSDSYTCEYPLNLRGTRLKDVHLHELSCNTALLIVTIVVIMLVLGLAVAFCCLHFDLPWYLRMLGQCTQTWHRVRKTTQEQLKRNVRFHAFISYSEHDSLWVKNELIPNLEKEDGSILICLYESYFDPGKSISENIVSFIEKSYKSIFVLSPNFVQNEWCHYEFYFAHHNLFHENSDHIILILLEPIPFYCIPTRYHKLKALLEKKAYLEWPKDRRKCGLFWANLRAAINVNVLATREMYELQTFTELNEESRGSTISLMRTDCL

[2] = biological target: T1, Toll-like receptor-10 (human (endogenous in THP-1)); assay: co-IP; THP-1 cells, mock transfection without poly(I:C); lysis in 50 mM Tris, 150 mM NaCl, 0.5% IGEPAL CA-630, pH 7.5; anti-TLR10 antibody (sc-30198) and Protein G agarose at 4°C; Western blotting with anti-MyD88

Substance | binding [1] | binding [2]
TIR-domain-containing adaptor-inducing IFNβ (from UniProt Q8IUC6 1-712) | no binding | –
myeloid differentiation primary response gene 88 (from UniProt Q99836 1-296) | binds | binds weakly
